Results from paper PMC12032420.
No constants are given. Whether binding was seen depends on the method and setting. Binding seen in cells or lysates may run through a third protein. Some entries that bind do so weakly or less than the wild type.

Sequences of proteins named here, by UniProt entry; tags and fusion partners are left off. A change or cut given only in a name is not applied to a line headed by its entry.
UniProt Q09472: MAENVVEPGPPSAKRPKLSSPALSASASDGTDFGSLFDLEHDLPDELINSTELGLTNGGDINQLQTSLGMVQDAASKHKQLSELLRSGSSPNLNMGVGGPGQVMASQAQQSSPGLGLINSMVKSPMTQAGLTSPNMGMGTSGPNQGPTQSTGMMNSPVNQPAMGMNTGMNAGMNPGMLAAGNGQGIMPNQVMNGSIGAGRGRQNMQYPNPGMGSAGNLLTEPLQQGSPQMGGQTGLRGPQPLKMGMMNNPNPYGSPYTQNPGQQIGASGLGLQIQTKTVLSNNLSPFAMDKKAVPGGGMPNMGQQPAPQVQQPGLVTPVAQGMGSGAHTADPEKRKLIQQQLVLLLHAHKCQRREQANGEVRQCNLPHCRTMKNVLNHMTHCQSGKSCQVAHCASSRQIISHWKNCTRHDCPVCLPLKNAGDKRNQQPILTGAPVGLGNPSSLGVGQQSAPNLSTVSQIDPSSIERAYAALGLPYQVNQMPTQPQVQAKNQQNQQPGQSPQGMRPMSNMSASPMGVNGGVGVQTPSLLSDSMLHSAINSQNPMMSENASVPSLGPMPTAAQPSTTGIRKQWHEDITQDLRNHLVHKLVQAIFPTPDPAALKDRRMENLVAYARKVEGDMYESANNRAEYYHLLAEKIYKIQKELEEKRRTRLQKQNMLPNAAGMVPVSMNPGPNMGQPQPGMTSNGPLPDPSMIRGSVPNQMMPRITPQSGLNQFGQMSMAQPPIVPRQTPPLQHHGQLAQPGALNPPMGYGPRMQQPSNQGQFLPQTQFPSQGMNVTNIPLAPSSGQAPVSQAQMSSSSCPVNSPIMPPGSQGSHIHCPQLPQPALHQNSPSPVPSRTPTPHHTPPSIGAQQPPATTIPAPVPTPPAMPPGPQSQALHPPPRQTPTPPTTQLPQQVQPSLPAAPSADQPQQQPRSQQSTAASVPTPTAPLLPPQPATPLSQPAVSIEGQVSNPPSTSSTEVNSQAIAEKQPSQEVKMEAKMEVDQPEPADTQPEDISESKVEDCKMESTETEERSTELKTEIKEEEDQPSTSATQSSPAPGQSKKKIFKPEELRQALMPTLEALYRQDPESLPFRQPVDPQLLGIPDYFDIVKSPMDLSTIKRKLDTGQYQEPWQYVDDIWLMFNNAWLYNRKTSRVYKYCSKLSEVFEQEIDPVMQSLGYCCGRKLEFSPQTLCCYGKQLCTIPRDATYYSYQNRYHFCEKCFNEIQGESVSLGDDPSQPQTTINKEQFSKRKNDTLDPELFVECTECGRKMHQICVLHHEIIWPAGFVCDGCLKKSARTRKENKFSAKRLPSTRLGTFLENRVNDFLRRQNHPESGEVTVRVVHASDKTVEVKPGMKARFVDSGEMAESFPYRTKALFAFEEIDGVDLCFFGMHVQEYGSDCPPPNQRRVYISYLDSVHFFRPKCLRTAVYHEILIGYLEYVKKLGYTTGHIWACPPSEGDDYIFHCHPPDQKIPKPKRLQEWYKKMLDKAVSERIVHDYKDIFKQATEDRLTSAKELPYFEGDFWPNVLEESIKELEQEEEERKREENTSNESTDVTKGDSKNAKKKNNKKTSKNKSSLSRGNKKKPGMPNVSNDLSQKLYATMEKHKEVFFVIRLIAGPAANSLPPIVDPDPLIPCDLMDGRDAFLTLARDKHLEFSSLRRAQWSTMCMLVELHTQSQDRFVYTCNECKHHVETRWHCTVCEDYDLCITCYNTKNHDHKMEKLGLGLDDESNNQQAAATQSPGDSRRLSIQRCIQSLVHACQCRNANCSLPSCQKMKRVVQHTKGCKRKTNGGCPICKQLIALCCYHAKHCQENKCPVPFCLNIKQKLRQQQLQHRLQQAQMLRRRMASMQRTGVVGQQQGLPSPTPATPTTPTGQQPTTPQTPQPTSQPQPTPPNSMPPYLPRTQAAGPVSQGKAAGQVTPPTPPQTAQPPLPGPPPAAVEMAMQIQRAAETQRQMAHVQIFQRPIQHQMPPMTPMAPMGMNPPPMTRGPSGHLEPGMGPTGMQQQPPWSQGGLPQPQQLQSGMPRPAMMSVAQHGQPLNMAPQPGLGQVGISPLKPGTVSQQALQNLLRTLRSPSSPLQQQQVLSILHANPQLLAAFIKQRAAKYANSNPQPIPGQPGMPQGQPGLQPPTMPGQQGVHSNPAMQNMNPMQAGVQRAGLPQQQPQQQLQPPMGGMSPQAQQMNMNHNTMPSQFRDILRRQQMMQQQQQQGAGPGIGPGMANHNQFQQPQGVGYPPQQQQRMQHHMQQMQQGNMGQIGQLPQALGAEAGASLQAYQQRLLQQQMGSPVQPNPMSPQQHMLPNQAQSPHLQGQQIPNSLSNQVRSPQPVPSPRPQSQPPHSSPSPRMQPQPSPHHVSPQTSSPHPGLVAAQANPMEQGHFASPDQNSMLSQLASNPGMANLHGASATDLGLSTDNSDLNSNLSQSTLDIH
UniProt P01106: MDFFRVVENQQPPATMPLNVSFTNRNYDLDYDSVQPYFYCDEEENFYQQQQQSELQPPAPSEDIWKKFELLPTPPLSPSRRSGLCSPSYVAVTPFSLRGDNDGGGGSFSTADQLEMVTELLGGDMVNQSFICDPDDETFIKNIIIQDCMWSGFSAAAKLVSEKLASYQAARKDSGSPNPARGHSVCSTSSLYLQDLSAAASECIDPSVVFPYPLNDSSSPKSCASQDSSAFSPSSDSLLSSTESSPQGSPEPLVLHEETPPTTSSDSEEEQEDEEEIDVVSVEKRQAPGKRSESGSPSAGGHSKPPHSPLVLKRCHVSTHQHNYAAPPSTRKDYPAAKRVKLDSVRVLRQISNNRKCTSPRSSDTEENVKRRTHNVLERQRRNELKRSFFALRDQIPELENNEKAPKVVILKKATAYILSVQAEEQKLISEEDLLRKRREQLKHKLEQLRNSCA

Biological target: E1A binding protein P300 (human (endogenous in MV-4-11 and MOLM-13)) (UniProt Q09472)
Assay: co-IP; lysates of MV-4-11 and MOLM-13 cells (NP40 buffer: 50 mM Tris-HCl pH 7.4, 150 mM NaCl, 1% Nonidet P40, 5 mM EDTA), treated with or without 1 nM quizartinib for 12 h; immunoprecipitated with anti-p300 or control IgG overnight at 4 °C, protein A/G agarose; c-Myc detected by Western blotting

c-Myc (from UniProt P01106 1-454)
binding: binds
